Measurements published in PubChem BioAssay AID463183 (Sanford-Burnham Center for Chemical Genomics, 2010).
The other results are listed elsewhere or left out. Further columns of the screen follow, without active or inactive calls. The list favours compounds with an active or inconclusive main result.

Experiment: hepatocyte lipid droplet accumulation inhibitors, confirmation, imaging, AML12 mouse hepatocytes, single concentration, high-content (AID 463183);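 note: cells counted after overnight compound exposure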
Details: BODIPY lipid droplet imaging, measured here: cell count, cytotoxicity, at 5.2 µM, droplets induced with 100 µM oleic acid

Compound	cell count
COc1ccccc1CNS(=O)(=O)c1ccc2c(c1)CC(C)N2C(=O)C1CCC1 (centres undefined)	1530 cells
Cc1ccccc1N/C(=N/S(=O)(=O)c1ccccc1)c1ccc(F)cc1	1600 cells
CCCCc1ccc(N=N/C(C(=O)Nc2cc(OC)c(NC(C)=O)cc2OC)=C(/C)O)cc1	1600 cells
Cc1occc1C(=O)N/N=C/c1ccc(OCc2ccccc2)cc1	1580 cells
CCCC1O[C@@H]2C[C@H]3[C@@H]4CCC5=CC(=O)C=C[C@]5(C)[C@H]4[C@@H](O)C[C@]3(C)[C@]2(C(=O)CO)O1 (some centres undefined)	1490 cells
Cc1ccc(C)c(C(=O)N2CCN(c3ncccn3)CC2)c1	1500 cells
CCOc1ccc(NC(=O)CN(C)C(=O)c2ccc(C)c(S(=O)(=O)N3CCCCC3)c2)cc1OCC	1640 cells
CCCOc1ccc(CNC(=O)c2ccc3nc(N4CCOCC4)sc3c2)cc1	1640 cells
CN(C1=C(N2CCCCC2)C(=O)c2ccccc2C1=O)c1ccccc1	1510 cells
CCCCCCn1c(N2CCN(c3ccccc3)CC2)nc2c1c(=O)[nH]c(=O)n2C	1690 cells
CC(C)c1ccc(NC(=O)CSc2nc3ccccc3nc2N2CCCC2)cc1	1530 cells
CC(C)(C)C(=O)/C=c1\[nH]c(=O)/c(=C\c2ccc(F)cc2)s1	1610 cells
CCOC(=O)/C(C(=O)Nc1ccccc1Cl)=C1/NC(C)(C)Cc2ccccc21	1530 cells
COc1cccc(N=Nc2ccc3ccccc3c2O)c1	1490 cells
O=C(NC1CCCc2c1cnn2-c1cc(F)cc(F)c1)c1ccccn1 (centres undefined)	1510 cells
COc1ccc2c(c1)c(CC(=O)Nc1ccc(C(C)=O)cc1)c(C)n2C(=O)c1ccc(Cl)cc1	1640 cells
O=C(NCc1ccc2c(c1)OCO2)c1cc(-c2ccccc2)c(N2CCOCC2)s1	1620 cells
CCCCOc1ccc(C(=O)Nc2cc(C)c(OCC(=O)N3CCOCC3)c(C)c2)cc1	1560 cells
Cc1ccc(/C=C/C(=O)NCC2COc3ccccc3O2)o1 (centres undefined)	1640 cells
COc1ccc(Cl)cc1NC(=O)CCNC(=O)OCc1ccccc1	1650 cells

Arranged by molecular weight (high to low): some entries from above.
Compound	cell count
COc1ccc2c(c1)c(CC(=O)Nc1ccc(C(C)=O)cc1)c(C)n2C(=O)c1ccc(Cl)cc1	1640 cells
CCCCc1ccc(N=N/C(C(=O)Nc2cc(OC)c(NC(C)=O)cc2OC)=C(/C)O)cc1	1600 cells
CCCCOc1ccc(C(=O)Nc2cc(C)c(OCC(=O)N3CCOCC3)c(C)c2)cc1	1560 cells
CCCC1O[C@@H]2C[C@H]3[C@@H]4CCC5=CC(=O)C=C[C@]5(C)[C@H]4[C@@H](O)C[C@]3(C)[C@]2(C(=O)CO)O1 (some centres undefined)	1490 cells
O=C(NCc1ccc2c(c1)OCO2)c1cc(-c2ccccc2)c(N2CCOCC2)s1	1620 cells
CCCOc1ccc(CNC(=O)c2ccc3nc(N4CCOCC4)sc3c2)cc1	1640 cells
CCCCCCn1c(N2CCN(c3ccccc3)CC2)nc2c1c(=O)[nH]c(=O)n2C	1690 cells
CC(C)c1ccc(NC(=O)CSc2nc3ccccc3nc2N2CCCC2)cc1	1530 cells
CCOC(=O)/C(C(=O)Nc1ccccc1Cl)=C1/NC(C)(C)Cc2ccccc21	1530 cells
COc1ccc(Cl)cc1NC(=O)CCNC(=O)OCc1ccccc1	1650 cells
Cc1occc1C(=O)N/N=C/c1ccc(OCc2ccccc2)cc1	1580 cells
CC(C)(C)C(=O)/C=c1\[nH]c(=O)/c(=C\c2ccc(F)cc2)s1	1610 cells

(continued)

Compound	cell count
Cc1ccc(-c2cc(C(=O)NC3=NCCS3)c3cc(Br)ccc3n2)o1	1550 cells
Cc1noc(C)c1C(=O)Nc1ccc(F)cc1F	1600 cells
CN(C)CCCN(C(=O)c1ccc2ccccc2c1)c1nc2cc3c(cc2s1)OCO3	1560 cells
Cc1c(Cl)cccc1N(CC(=O)NC(C)c1ccccc1)S(C)(=O)=O (centres undefined)	1640 cells
CCOc1ccc(CN(C)C(=O)NNC(=O)c2ccc(C)cc2)cc1OC	1680 cells
COc1ccc(Br)cc1CNC(=O)CCCc1cn(C)c2ccccc12	1580 cells
O=C(Nc1cccc(Cn2cccn2)c1)c1cc2c(s1)CCCC2	1560 cells
CCOc1ccc(C(C)NC(=O)Cc2ccccc2)cc1OCC (centres undefined)	1670 cells
CC(C)Cn1c(N)c(C(=O)COC(=O)c2cc(C3CC3)nc3ccccc23)c(=O)n(C)c1=O	1600 cells
COc1ccc(CCN2C(=O)CC(N3CCOCC3)C2=O)cc1OC (centres undefined)	1610 cells
COc1ccc(CCNC(=O)c2cc(-c3ccccc3)c(N3CCOCC3)s2)c(OC)c1OC	1520 cells
COc1ccc(CCNC(=O)CC(c2ccccc2)c2cc(C)ccc2O)cc1OC (centres undefined)	1530 cells
COc1cccc(NC(=O)CCC(=O)Nc2cc(OC)c(NC(=O)c3cccs3)cc2OC)c1	1580 cells
CC(C)CCOc1ccc(C(=O)NCC(c2ccco2)N(C)C)cc1 (centres undefined)	1600 cells
Cc1ccc(C(=O)NCCc2nc3ccccc3[nH]2)cc1[N+](=O)[O-]	1570 cells
C/C(=N\Nc1nc(-c2ccccc2)cs1)c1cccs1	1650 cells
COc1ccc(CCNC(=O)C2CC3Cn4c(nc5cc6ccccc6cc54)C3N2C)cc1 (centres undefined)	1570 cells
Cc1cccc(NC(=O)Cc2coc3ccc4ccccc4c23)n1	1640 cells
COc1cc2c(cc1OC)CN(CC(=O)Nc1ccc(C)c(C)c1)CC2	1600 cells
